Measured values: PMC9970971
No constants are given. Whether binding was seen depends on the method and setting. Binding seen in cells or lysates may run through a third protein. Some binding calls cover weakened binding; strength is not graded here.

Amino acid sequences for entries named in this document (tags omitted).
UniProt Q15717: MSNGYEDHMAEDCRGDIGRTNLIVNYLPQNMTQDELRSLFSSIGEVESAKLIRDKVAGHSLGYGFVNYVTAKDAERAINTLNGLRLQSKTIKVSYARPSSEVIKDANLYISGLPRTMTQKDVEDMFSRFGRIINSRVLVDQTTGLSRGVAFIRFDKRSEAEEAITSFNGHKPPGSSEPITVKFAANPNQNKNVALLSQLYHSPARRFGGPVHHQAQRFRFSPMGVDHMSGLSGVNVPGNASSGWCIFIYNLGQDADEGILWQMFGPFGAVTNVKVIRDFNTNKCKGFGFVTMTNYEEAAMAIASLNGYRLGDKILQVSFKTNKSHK
UniProt Q9Y297: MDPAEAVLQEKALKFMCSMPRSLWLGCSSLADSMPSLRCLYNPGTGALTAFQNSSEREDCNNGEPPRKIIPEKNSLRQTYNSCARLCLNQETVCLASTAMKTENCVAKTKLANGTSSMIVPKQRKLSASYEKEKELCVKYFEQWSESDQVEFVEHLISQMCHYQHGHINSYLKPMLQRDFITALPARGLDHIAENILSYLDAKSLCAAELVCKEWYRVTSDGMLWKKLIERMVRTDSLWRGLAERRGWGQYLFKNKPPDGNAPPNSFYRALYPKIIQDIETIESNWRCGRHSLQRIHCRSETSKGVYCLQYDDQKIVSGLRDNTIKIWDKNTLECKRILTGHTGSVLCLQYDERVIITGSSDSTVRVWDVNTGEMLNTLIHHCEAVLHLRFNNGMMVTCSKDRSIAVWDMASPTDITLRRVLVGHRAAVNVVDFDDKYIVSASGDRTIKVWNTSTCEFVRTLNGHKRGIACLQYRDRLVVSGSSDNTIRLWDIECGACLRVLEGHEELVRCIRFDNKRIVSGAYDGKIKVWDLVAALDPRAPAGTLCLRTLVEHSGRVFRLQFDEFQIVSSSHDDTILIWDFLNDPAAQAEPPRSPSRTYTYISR

Biological target: human antigen R (HuR) (human (endogenous in HCT116)) (UniProt Q15717)
Test: co-IP; HCT116 cells stably transduced with control or GMDS-AS1 shRNA, transfected with MYC-β-TrCP plasmid for 48 h; lysates in co-IP buffer (0.5% Triton X-100, 20 mM HEPES, 150 mM NaCl, 12.5 mM glycerophosphate, 1.5 mM MgCl2, 2 mM EGTA); IP with control IgG, anti-HuR or anti-β-TrCP antibody overnight at 4 °C, protein A/G magnetic beads; immunoblot with anti-HuR and anti-β-TrCP

- binding: binds
Substance: MYC-β-TrCP (beta-transducin repeat-containing protein) (from UniProt Q9Y297 1-605)
